Assay results from US12540115B2, “Inhibitors of phospholipid synthesis and methods of use” (priority 2019, dated 2026).
At least one structure is not confirmed: it was looked up by name or label, or the drawing left a doubt.

Test system: mouse hepatocellular carcinoma lines
Assay: Cancer cell proliferation, MTT assay on mouse hepatocellular carcinoma lines
Assay type: cell-based
Details: treated 1-3 days, dosage range 1 mM to 0.1 nM; vs untreated (DMSO)
Experimental: FIG. 1-26 illustrate various exemplary GPAT inhibitors that suppress cancer cell proliferation. With reference to FIG. 1-26: BCL stands for Burkitt lymphoma line, all experiments on BCL were done using trypan blue and cell counts. Cells are treated 1-3 days with dosage range 1 mM to 0.1 nM. RCC stands for renal cell carcinoma, all experiments on RCC were in vivo experiments. Tumors are treated with dosage range 0.1 mg/kg to 100 mg/kg for X days, wherein X ranges from 7 to 30 days. All experiments are done in MTT assay on mouse hepatocellular carcinoma lines that are treated 1-3 days with the dosage range from 1 mM to 0.1 nM. The bar in each of FIGS. 1-26 entitled “Untreated” refers to a sample without an exemplary GPAT inhibitor compound, diluted in DMSO solvent.

O=S(=O)(Nc1ccccc1CO)C1CCCCC1 [BTX 236]
cancer cell proliferation: suppresses cancer cell proliferation
